Laboratory results reported in PubChem BioAssay AID256 (DTP/NCI, 2004).
The list does not hold the whole screen: it gathers tests that were run many times, whatever their T/C, doses with no T/C, and many T/C values between a quarter and a half above the control. Other doses and runs of a compound stand elsewhere. T/C gives the treated animals as a percentage of the vehicle group. Some doses have a count of surviving animals in place of a T/C: the source files T/C as zero there, which appears to mark a toxic dose or a test without result, not a measured value. Some doses without a T/C left all or most animals alive at the check, yet need not have been tolerated: the source hardly ever lists a survival T/C far under the control, and the zero likely stands for such cases as well. Counts of survivors are from the toxicity check (mostly the fifth day) where no day follows; animals may have died later. Schedule codes are those of the source, read here as Q, the interval in days (D) or hours (H), X, the number of doses. Where survival is the endpoint, the PubChem record calls one and a half times the control and up active, and a quarter to a half above the control has no call in these data; cut-offs in other NCI protocols can differ. Some entries hold several experiments; the results are listed from low to high.

System: CD2F1 mice, L1210 leukemia ip, survival T/C
Assay: NCI In Vivo Anticancer Drug Screen. Data for tumor model L1210 Leukemia (intraperitoneal) in CD2F1 (CDF1) mice
Details: T/C endpoint: mean survival time, higher T/C = longer survival
Outline: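 Antitumor effect is scored in animals hosting a serially transplanted tumor. Values compare compound-dosed animals against vehicle-only controls as a simple quotient.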

[1] = dose: 50.0 mg/kg/injection, schedule: Q04DX003 (ip), vehicle: saline
[2] = dose: 100.0 mg/kg/injection, schedule: Q04DX003 (ip), vehicle: saline with Tween-80
[3] = dose: 200.0 mg/kg/injection, schedule: Q04DX003 (ip), vehicle: saline with Tween-80
[4] = dose: 400.0 mg/kg/injection, schedule: Q04DX003 (ip), vehicle: saline with Tween-80
[5] = dose: 400.0 mg/kg/injection, schedule: Q04DX002 (ip), vehicle: saline
[6] = dose: 100.0 mg/kg/injection, schedule: Q04DX003 (ip), vehicle: Klucel (hydroxypropylcellulose) (HPC)
[7] = dose: 300.0 mg/kg/injection, schedule: Q01DX001 (ip), vehicle: other

With CCOC(=O)C1C(=O)N(C)C(=O)N1C (stereo unspecified) as the compound, how does the survivor count (dose: 18.8 mg/kg/injection, schedule: Q01DX009 (ip), vehicle: water) read?
The survivor count was 6 of 6.

What does the source list for COC(=O)[CH](C[N+](=O)[O-])[Hg][Cl] (stereo unspecified)?
survivor count (dose: 3.12 mg/kg/injection, schedule: Q01DX009 (ip), vehicle: saline with Tween-80): 2 of 6; survivor count (dose: 12.5 mg/kg/injection, schedule: Q01DX009 (ip), vehicle: saline with Tween-80): 1 of 6; survivor count (dose: 25.0 mg/kg/injection, schedule: Q04DX003 (ip), vehicle: saline): 3 of 6; survivor count [1]: 0 of 6; survivor count [2]: 0 of 6; survivor count [3]: 0 of 6; survivor count [4]: 0 of 6

Which results are given for O=C(CN1CC1)NCCCCCCCCCNC(=O)CN1CC1?
T/C (dose: 50.0 mg/kg/injection, schedule: Q01DX001 (ip), vehicle: carboxymethylcellulose (CMC)): 126 % of control; survivor count (dose: 75.0 mg/kg/injection, schedule: Q01DX001 (ip), vehicle: carboxymethylcellulose (CMC)): 1 of 6

What does the source list for Cc1ccc(C(C)C)c(OCCN)c1?
survivor count (dose: 200.0 mg/kg/injection, schedule: Q04DX002 (ip), vehicle: saline): 0 of 3; survivor count [5]: 0 of 3

For CC(NC(=O)OCc1ccccc1)C(=O)O (stereo unspecified), which survivor count (dose: 400.0 mg/kg/injection, schedule: Q01DX009 (ip), vehicle: saline with Tween-80) is on record?
Its survivor count is 5 of 6.

With NCCN1CCc2ccccc2C1 as the compound, how does the survivor count [6] read?
Its survivor count is 2 of 6.

What about the survivor count (dose: 200.0 mg/kg/injection, schedule: Q04DX003 (ip), vehicle: Klucel (hydroxypropylcellulose) (HPC)) of the same compound?
Its survivor count is 1 of 6.

And the survivor count (dose: 400.0 mg/kg/injection, schedule: Q04DX003 (ip), vehicle: Klucel (hydroxypropylcellulose) (HPC))?
The survivor count was 0 of 6.

CN(C)CCCN=C(N)CSP(=O)(O)O was tested. Which survivor count [5] did it give?
The survivor count was 0 of 3.

How did the survivor count [7] turn out when O=C1N(Cc2ccccc2)CCS1(=O)=O was run?
The survivor count was 1 of 6.

With COC(CNCCO)c1ccccc1 (stereo unspecified) as the compound, how does the survivor count (dose: 200.0 mg/kg/injection, schedule: Q01DX001 (ip), vehicle: saline) read?
The survivor count was 3 of 6.

What about the survivor count (dose: 400.0 mg/kg/injection, schedule: Q01DX001 (ip), vehicle: saline) of the same compound?
The survivor count was 1 of 6.

How did the T/C (dose: 25.0 mg/kg/injection, schedule: Q01DX007 (ip), vehicle: saline) turn out when CC(=O)Nc1ccc2nc3ccc(NC(C)=O)cc3[n+](-c3ccccc3)c2c1 was run?
The T/C was 138 % of control.

What about the T/C (dose: 25.0 mg/kg/injection, schedule: Q01DX009 (ip), vehicle: saline) of the same compound?
The T/C was 130 % of control.

What about the T/C (dose: 50.0 mg/kg/injection, schedule: Q03DX003 (ip), vehicle: saline) of the same compound?
The T/C was 126 % of control.

And the T/C [1]?
The T/C was 137 % of control.

What about the T/C (dose: 100.0 mg/kg/injection, schedule: Q03DX003 (ip), vehicle: saline) of the same compound?
The T/C was 134 % of control.

What about the T/C (dose: 100.0 mg/kg/injection, schedule: Q04DX003 (ip), vehicle: saline) of the same compound?
Its T/C is 138 % of control.

CC(=O)/C=C/Sc1n[nH]c(=O)[nH]c1=O was tested. Which survivor count (dose: 200.0 mg/kg/injection, schedule: Q01DX005 (ip), vehicle: distilled water + Tween-80) did it give?
The survivor count was 0 of 6.

For NC(=O)c1csc(C2OC(COP(=O)(O)O)C(O)C2O)n1 (stereo unspecified), which T/C (dose: 50.0 mg/kg/injection, schedule: Q01DX005 (ip), vehicle: water) is on record?
The T/C was 128 and 136 % of control.

What about the T/C (dose: 200.0 mg/kg/injection, schedule: Q01DX005 (ip), vehicle: water) of the same compound?
Its T/C is 145 % of control.

With CCCCCCCCCCCCCC(=O)N(C)C as the compound, how does the survivor count [4] read?
The survivor count was 3 of 6.

Which results are given for CCCCCCCCCCCC[n+]1c(C)cc(N)c2ccccc21?
survivor count (dose: 2.5 mg/kg/injection, schedule: Q01DX001 (ip), vehicle: other): 2 of 6; survivor count (dose: 75.0 mg/kg/injection, schedule: Q01DX001 (ip), vehicle: other): 0 of 6; survivor count (dose: 150.0 mg/kg/injection, schedule: Q01DX001 (ip), vehicle: other): 0 of 6; survivor count [7]: 0 of 6

Which T/C (dose: 5.0 mg/kg/injection, schedule: Q01DX009 (ip), vehicle: water) does the source give for COc1cccc2c1C(=O)c1c(O)c3c(c(O)c1C2=O)CC(O)(C(C)=O)CC3OC1CC(N)C(O)C(C)O1 (stereo unspecified) here?
Its T/C is 126 % of control.

What about the T/C (dose: 10.0 mg/kg/injection, schedule: Q01DX009 (ip), vehicle: water) of the same compound?
Its T/C is 128 % of control.

What does the source list for CCOC(=O)C(=O)C1CCNC1=O (stereo unspecified)?
survivor count [2]: 6 of 6; survivor count [3]: 0 of 6; survivor count [4]: 0 of 6

Which survivor count [2] does the source give for CC(C)(O)C1C2OC(=O)C1C1(O)CC3OC34C(=O)OC2C14C (stereo unspecified) here?
Its survivor count is 4 of 6.

What about the survivor count [3] of the same compound?
Its survivor count is 1 of 6.

And the survivor count [4]?
The survivor count was 0 of 6.

CN(C)c1ncnc(-c2ccncc2)n1 was tested. Which survivor count (dose: 400.0 mg/kg/injection, schedule: Q04DX002 (ip), vehicle: saline with Tween-80) did it give?
Its survivor count is 0 of 3.

What does the source list for CCCCCCCCCCCCCCCCC/C=C1\CC(=O)OC1=O?
survivor count [3]: 6 of 6; survivor count [4]: 6 of 6

Cn1c(=S)sc2ccccc21 was tested. Which survivor count [6] did it give?
The survivor count was 1 of 3.

And the survivor count [3]?
The survivor count was 0 of 3.

What about the survivor count [4] of the same compound?
Its survivor count is 0 of 3.

For N#CC(C#N)=CN1CCCC1, which survivor count (dose: 100.0 mg/kg/injection, schedule: Q01DX001 (ip), vehicle: saline with Tween-80) is on record?
Its survivor count is 0 of 6.

And the survivor count (dose: 200.0 mg/kg/injection, schedule: Q01DX001 (ip), vehicle: saline with Tween-80)?
The survivor count was 0 of 6.

What about the survivor count (dose: 400.0 mg/kg/injection, schedule: Q01DX001 (ip), vehicle: saline with Tween-80) of the same compound?
The survivor count was 0 of 6.
